Reference: the supplement of paper PMC10849652
This is one part of the list.

By UniProt entry, the sequences of proteins in these tests, tags left out. Where a name states a change or a piece, a line headed by the entry shows the natural chain unless it says otherwise.
UniProt Q9UGV2: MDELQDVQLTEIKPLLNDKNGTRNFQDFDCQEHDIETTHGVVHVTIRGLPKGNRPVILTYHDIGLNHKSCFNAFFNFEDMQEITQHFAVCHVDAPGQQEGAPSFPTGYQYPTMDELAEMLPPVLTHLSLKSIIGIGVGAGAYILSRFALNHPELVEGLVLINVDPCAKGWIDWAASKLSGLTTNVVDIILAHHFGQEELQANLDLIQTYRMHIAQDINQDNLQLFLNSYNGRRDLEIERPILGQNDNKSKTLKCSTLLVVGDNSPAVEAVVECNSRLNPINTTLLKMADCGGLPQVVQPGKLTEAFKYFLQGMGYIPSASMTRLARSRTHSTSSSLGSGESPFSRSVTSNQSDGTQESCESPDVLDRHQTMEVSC
UniProt Q86Y39, whole entry, looked up: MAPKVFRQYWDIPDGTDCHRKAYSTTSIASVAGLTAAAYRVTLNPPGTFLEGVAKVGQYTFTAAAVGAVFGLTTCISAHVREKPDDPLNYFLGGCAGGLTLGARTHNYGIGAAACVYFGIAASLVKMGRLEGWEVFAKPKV
UniProt O76041: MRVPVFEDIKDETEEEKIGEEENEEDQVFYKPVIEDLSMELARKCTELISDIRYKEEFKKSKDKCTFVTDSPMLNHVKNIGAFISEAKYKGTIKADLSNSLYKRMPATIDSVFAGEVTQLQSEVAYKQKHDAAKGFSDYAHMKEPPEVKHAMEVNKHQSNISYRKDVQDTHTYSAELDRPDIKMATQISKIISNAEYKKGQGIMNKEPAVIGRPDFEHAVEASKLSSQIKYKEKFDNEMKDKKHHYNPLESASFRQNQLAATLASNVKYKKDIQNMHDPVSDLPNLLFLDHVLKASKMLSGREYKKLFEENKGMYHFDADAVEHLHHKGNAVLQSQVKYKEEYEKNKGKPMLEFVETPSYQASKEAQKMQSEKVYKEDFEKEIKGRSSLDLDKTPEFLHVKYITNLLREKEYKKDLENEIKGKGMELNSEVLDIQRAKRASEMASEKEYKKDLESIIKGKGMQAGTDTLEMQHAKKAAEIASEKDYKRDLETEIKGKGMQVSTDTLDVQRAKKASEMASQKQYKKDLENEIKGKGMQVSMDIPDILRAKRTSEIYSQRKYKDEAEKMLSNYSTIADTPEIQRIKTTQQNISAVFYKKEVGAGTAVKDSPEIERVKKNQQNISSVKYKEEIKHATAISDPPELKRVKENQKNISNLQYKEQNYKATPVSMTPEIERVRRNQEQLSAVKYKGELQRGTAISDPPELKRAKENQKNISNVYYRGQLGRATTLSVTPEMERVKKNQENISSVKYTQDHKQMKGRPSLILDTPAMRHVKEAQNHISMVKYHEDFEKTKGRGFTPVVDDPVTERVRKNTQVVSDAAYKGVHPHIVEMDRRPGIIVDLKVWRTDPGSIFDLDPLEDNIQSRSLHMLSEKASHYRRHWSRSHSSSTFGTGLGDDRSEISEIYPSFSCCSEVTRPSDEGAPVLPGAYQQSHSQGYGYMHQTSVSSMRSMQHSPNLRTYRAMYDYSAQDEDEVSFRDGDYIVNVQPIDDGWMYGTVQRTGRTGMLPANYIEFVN
UniProt Q147X3: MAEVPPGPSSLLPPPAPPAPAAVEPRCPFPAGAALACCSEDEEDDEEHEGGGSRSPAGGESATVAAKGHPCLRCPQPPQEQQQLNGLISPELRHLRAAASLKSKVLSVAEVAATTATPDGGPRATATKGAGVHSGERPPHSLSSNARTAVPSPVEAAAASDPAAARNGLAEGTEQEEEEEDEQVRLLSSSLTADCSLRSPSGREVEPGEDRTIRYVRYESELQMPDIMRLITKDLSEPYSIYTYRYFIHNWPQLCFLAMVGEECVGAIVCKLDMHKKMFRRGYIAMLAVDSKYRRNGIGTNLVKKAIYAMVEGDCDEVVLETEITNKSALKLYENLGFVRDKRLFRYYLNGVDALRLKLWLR
UniProt Q92542, whole entry, looked up: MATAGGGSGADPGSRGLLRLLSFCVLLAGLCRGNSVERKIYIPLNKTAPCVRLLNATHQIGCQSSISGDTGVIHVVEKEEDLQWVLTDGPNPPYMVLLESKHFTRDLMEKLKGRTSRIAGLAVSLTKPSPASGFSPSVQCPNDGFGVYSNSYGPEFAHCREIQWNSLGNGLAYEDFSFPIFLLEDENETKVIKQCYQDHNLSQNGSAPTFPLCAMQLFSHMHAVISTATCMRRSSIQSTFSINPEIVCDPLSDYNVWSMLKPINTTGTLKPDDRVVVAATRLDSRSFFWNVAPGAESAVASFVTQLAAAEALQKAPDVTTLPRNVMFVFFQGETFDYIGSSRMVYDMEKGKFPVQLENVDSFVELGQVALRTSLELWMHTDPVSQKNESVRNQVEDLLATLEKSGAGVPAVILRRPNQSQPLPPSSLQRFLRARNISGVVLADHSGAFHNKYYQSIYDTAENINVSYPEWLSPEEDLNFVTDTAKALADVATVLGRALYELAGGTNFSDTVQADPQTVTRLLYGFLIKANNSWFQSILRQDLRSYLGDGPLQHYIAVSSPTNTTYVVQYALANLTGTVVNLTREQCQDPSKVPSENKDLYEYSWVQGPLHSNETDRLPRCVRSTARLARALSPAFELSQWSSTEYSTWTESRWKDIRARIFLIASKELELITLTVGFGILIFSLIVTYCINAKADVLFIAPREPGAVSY
UniProt P19404, whole entry, looked up: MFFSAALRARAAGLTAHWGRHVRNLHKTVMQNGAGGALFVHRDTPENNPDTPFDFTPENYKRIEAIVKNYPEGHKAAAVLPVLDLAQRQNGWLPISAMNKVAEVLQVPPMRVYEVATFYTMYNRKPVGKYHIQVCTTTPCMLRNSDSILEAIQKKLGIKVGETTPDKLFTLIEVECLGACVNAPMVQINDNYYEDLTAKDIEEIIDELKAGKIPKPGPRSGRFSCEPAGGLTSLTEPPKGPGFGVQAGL
UniProt Q8N183: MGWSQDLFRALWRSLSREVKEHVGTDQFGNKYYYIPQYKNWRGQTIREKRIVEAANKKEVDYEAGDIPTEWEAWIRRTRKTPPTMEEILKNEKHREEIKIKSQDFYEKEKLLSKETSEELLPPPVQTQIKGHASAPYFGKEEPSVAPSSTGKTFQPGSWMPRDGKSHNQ
UniProt O95299, whole entry, looked up: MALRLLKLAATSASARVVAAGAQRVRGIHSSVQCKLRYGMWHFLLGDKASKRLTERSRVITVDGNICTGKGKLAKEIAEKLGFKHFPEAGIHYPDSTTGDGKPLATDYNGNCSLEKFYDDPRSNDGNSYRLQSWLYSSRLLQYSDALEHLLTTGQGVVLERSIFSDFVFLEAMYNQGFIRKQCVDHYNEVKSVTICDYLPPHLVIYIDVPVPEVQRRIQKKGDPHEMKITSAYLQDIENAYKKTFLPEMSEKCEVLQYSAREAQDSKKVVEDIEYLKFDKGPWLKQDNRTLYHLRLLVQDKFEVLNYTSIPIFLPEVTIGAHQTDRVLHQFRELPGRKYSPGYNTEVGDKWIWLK
UniProt O43776: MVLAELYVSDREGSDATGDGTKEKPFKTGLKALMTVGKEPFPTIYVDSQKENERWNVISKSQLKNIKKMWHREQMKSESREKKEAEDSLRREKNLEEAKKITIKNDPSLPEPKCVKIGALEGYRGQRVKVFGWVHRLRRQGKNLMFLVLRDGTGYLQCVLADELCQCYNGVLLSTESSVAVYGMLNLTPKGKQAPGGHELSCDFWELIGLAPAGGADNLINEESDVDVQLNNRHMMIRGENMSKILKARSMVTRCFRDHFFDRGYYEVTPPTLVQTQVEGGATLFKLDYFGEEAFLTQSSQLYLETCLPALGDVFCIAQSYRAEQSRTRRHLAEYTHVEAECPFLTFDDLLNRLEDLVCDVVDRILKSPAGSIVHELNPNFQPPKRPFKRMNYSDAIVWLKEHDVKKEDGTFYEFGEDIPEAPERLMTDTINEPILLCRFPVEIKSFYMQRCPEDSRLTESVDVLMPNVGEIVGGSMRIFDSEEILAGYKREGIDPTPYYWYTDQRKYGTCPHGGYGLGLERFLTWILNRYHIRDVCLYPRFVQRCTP
UniProt Q9UHQ1: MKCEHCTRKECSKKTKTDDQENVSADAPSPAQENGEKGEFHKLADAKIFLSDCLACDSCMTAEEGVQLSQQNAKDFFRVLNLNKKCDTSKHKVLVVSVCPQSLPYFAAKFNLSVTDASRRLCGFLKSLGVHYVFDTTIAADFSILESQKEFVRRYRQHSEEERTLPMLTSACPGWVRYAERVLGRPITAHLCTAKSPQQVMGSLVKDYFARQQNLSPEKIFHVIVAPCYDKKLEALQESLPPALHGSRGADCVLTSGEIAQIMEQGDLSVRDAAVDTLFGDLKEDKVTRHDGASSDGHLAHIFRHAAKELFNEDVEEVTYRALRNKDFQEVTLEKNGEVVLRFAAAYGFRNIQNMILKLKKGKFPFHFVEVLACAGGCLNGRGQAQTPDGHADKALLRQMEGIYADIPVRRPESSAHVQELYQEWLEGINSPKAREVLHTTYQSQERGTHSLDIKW
UniProt P41227: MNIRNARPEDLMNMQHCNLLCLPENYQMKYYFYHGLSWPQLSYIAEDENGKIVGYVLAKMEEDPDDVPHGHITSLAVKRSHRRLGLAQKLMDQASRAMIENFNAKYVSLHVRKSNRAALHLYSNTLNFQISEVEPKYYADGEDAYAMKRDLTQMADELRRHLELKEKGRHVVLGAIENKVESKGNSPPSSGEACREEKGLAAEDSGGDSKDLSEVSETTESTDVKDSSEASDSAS
UniProt Q96HR8: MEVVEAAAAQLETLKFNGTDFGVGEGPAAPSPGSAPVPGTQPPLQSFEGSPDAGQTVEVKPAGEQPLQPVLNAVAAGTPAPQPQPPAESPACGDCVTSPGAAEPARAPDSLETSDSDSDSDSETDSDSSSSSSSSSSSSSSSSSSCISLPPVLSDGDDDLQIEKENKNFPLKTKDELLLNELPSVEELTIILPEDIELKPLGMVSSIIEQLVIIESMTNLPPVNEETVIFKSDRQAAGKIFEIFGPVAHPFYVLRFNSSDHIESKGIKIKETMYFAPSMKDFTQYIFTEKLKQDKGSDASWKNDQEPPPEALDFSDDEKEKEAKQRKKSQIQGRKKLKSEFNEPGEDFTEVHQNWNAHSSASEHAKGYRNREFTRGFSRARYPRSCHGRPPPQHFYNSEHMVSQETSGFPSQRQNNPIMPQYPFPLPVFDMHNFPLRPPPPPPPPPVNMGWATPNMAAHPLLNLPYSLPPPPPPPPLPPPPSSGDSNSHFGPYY
UniProt P61599, whole entry, looked up: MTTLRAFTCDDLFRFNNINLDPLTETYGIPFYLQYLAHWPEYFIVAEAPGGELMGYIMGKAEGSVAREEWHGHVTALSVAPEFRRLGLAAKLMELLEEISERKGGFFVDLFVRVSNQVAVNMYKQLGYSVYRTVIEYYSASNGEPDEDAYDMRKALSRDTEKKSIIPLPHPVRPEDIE
UniProt Q15843, whole entry, looked up: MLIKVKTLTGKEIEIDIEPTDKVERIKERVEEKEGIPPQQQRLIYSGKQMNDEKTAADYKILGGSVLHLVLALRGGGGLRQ
UniProt Q9Y375: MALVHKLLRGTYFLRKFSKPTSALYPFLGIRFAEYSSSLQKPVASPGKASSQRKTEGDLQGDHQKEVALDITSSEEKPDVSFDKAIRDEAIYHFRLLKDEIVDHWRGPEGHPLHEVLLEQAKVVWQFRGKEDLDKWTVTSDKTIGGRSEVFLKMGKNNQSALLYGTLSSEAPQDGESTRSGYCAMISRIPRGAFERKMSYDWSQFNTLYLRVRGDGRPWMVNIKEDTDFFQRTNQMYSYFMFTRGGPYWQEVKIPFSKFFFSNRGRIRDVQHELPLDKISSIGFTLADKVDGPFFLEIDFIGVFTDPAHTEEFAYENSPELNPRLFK

How the values were obtained:
Test in all cases: log2 fold change, soluble protein after heating vs DMSO (PISA); higher = thermal stabilisation; K562 cells, 10 uM, 30 min; active = over 0.2 and 3.5 SD of the protein, either way, in both replicates (recomputed)
[1] = compound: CC1=C(C=C(C=C1)NC(=O)C2=CC(=CC=C2)C(C)(C)C#N)NC3=CC4=C(C=C3)N=CN(C4=O)C
Summary of the method: (§1)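 For each measurement, 10 μM compound was applied for 30 min to K562 cells at 2×10^6 cells/mL. Aliquots were heated for 3 min across 48°C-58°C, pooled, and extracted in PBS with 0.5% NP-40 at 4°C; the supernatant after 21,000xg for 90 min was soluble protein. This was quantified by TMTpro 16plex LC-MS/MS with channel sums equalised, and thermal stability was reported relative to control samples from duplicates, on a log2 fold-change scale.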

[2] = compound: CC1=C(C=C(C=C1)NC(=O)C2=CC(=CC=C2)N(C)C)NC(=O)C3=CC=C(C=C3)O
Summary of the method: as §1

[3] = compound: CC1=CC=C(C=C1)SC2=C3C=C(SC3=CN=C2)C(=O)N
Summary of the method: as §1

[4] = compound: CC1=NC(=CC=C1)C2=C(N=C(N2)C(C)(C)C)C3=CC4=NC=CN=C4C=C3
Summary of the method: as §1

[5] = compound: CCCCN(Cc1ccc(C(=O)NO)cc1)C(=O)Nc1ccccc1 [Nexturastat A]
Summary of the method: as §1

[6] = compound: CCCS(=O)(=O)Nc1ccc(F)c(C(=O)c2c[nH]c3ncc(-c4ccc(Cl)cc4)cc23)c1F [vemurafenib]
Summary of the method: as §1

[7] = compound: CCCS(=O)(=O)Nc1ccc(F)c(C(=O)c2c[nH]c3ncc(Cl)cc23)c1F
Summary of the method: as §1

[8] = compound: CCCc1cc(C)[nH]c(=O)c1CNC(=O)c1cc(-c2ccnc(N3CCN(C)CC3)c2)cc2c1cnn2C(C)C
Summary of the method: as §1

[9] = compound: CCN(CC)Cc1ccc2cc(COC(=O)Nc3ccc(C(=O)NO)cc3)ccc2c1 [givinostat]
Summary of the method: as §1

[10] = compound: CCN(CCCOc1ccc2c(Nc3cc(CC(=O)Nc4cccc(F)c4)[nH]n3)ncnc2c1)CCOP(=O)(O)O [barasertib]
Summary of the method: as §1

[11] = compound: CC[C@@H]1C(=O)N(C)c2cnc(Nc3ccc(C(=O)NC4CCN(C)CC4)cc3OC)nc2N1C1CCCC1
Summary of the method: as §1

[12] = compound: CC[C@@H]1C(=O)N(C)c2cnc(Nc3ccc(C(=O)N[C@H]4CC[C@H](N5CCN(CC6CC6)CC5)CC4)cc3OC)nc2N1C(C)C [volasertib]
Summary of the method: as §1

[13] = compound: CC[C@H](C)N1C=C(C2=C(C=C(C=C21)C3=CN=C(C=C3)N4CCNCC4)C(=O)NCC5=C(C=C(NC5=O)C)C)C
Summary of the method: as §1

[14] = compound: CC[C@H](C)[C@@H](C(=O)N[C@@H]([C@@H](C)O)C(=O)N[C@@H](CC(C)C)C(=O)[C@]1(CO1)C)NC(=O)[C@H]([C@@H](C)CC)N(C)C(=O)C [epoxomicin]
Summary of the method: as §1

[15] = compound: CCn1c(C(=O)N(C2CC2)C2CC2)cc2c3c(ncn3C)c(Nc3cc(C)n(C)n3)nc21
Summary of the method: as §1

[16] = compound: CCn1cc(-c2ccnc3[nH]c(-c4cccc(CN(C)C)c4)cc23)c(-c2ccc(NC(=O)N(C)C)cc2)n1
Summary of the method: as §1

[17] = compound: CN(C)CC(=O)Nc1ccc2[nH]c(=O)c3ccccc3c2c1
Summary of the method: as §1

[18] = compound: CN(CCOC1=CC=C(C=C1)C[C@H]2C(=O)NC(=O)S2)C3=CC=CC=N3 (racemic) [rosiglitazone]
Summary of the method: as §1

[19] = compound: CN1C2=C(C3=C1C(=O)N(N=C3)CC4=CC(=CC=C4)N)SC(=C2)S(=O)C
Summary of the method: as §1

[20] = compound: CN1CCC(CNc2ccc3ncc(-c4cccc(OC(F)(F)F)c4)n3n2)CC1
Summary of the method: as §1

Measured: log2 fold change

NDRG3 (UniProt Q9UGV2)
inactive: [1] 0.06 | [2] 0.008 | [3] 0.024 | [4] 0.006 | [5] -0.01 | [6] -0.011 | [7] 0.065 | [8] 0.013 | [9] -0.042 | [10] -0.017 | [11] -0.019 | [12] -0.142 | [13] -0.01 | [14] 0.007 | [15] 0 | [16] -0.152 | [17] 0.023 | [18] 0.025 | [19] -0.095 | [20] 0.1

NDUFA11 (UniProt Q86Y39)
inactive: [1] -0.006 | [2] 0.021 | [3] 0.075 | [4] 0.008 | [5] -0.048 | [6] -0.025 | [7] 0 | [8] -0.109 | [9] 0.062 | [10] -0.031 | [11] 0.049 | [12] 0.066 | [13] -0.035 | [14] -0.051 | [15] 0.005 | [16] -0.031 | [17] 0.015 | [18] -0.032 | [19] 0.006 | [20] 0.028

NEBL isoform 2 (UniProt O76041)
inactive: [1] -0.032 | [2] 0.008 | [3] 0.02 | [4] -0.011 | [5] -0.002 | [6] -0.093 | [7] -0.007 | [8] -0.022 | [9] -0.078 | [10] 0.014 | [11] 0.026 | [12] 0.025 | [13] 0.01 | [14] 0.03 | [15] -0.005 | [16] 0.024 | [17] -0.046 | [18] -0.033 | [19] -0.033 | [20] -0.078

NAA30 (UniProt Q147X3)
inactive: [1] 0.081 | [2] 0.01 | [3] 0.009 | [4] 0.03 | [5] -0.002 | [6] 0.035 | [7] 0.003 | [8] -0.022 | [9] 0.035 | [10] 0.084 | [11] -0.036 | [12] -0.007 | [13] 0.036 | [14] -0.119 | [15] -0.017 | [16] -0.291 | [17] -0.049 | [18] -0.059 | [19] 0.001 | [20] 0.099

NCSTN (UniProt Q92542)
inactive: [1] 0.027 | [2] 0.065 | [3] -0.017 | [4] 0.038 | [5] -0.019 | [6] -0.008 | [7] 0.018 | [8] -0.094 | [9] 0.056 | [10] 0.029 | [11] 0.008 | [12] -0.071 | [13] -0.052 | [14] -0.014 | [15] -0.054 | [16] -0.036 | [17] 0.04 | [18] -0.004 | [19] -0.05 | [20] -0.001

NDUFV2 (UniProt P19404)
inactive: [1] 0.026 | [2] 0.016 | [3] -0.013 | [4] -0.025 | [5] 0.037 | [6] 0.001 | [7] -0.043 | [8] 0.001 | [9] -0.068 | [10] -0.016 | [11] -0.019 | [12] 0.002 | [13] -0.013 | [14] 0 | [15] 0.002 | [16] -0.022 | [17] -0.026 | [18] 0.001 | [19] 0.015 | [20] -0.072

NDUFAF2 (UniProt Q8N183)
inactive: [1] -0.031 | [2] 0.006 | [3] 0.039 | [4] 0.051 | [5] -0.086 | [6] -0.009 | [7] 0.027 | [8] -0.043 | [9] 0.033 | [10] -0.012 | [11] -0.019 | [12] 0.036 | [13] -0.043 | [14] 0.027 | [15] -0.007 | [16] 0 | [17] 0.016 | [18] 0.002 | [19] -0.034 | [20] -0.058

NDUFA10 (UniProt O95299)
inactive: [1] -0.065 | [2] -0.025 | [3] 0.024 | [4] 0.03 | [5] -0.078 | [6] -0.044 | [7] 0.025 | [8] -0.104 | [9] 0.015 | [10] 0.028 | [11] -0.126 | [12] -0.223 | [13] 0.029 | [14] 0.037 | [15] -0.023 | [16] -0.131 | [17] 0.03 | [18] 0.031 | [19] -0.074 | [20] -0.215

NCOR2 (UniProt C9J0Q5)
inactive: [1] -0.051 | [2] 0.067 | [3] 0.005 | [4] -0.003 | [5] -0.052 | [6] -0.054 | [7] -0.017 | [8] -0.052 | [9] 0.001 | [10] -0.009 | [11] -0.059 | [12] -0.111 | [13] 0.091 | [14] 0.069 | [15] -0.023 | [16] -0.018 | [17] 0.056 | [18] 0.005 | [19] -0.074 | [20] -0.021

NARS1 (UniProt O43776)
inactive: [1] 0.005 | [2] 0.005 | [3] -0.056 | [4] 0.004 | [5] -0.023 | [6] -0.025 | [7] -0.049 | [8] -0.019 | [9] -0.038 | [10] -0.006 | [11] 0.017 | [12] 0.065 | [13] -0.023 | [14] -0.001 | [15] 0.025 | [16] 0.037 | [17] -0.04 | [18] 0.007 | [19] -0.013 | [20] 0.022

NARF (UniProt Q9UHQ1)
inactive: [1] -0.058 | [2] -0.029 | [3] -0.018 | [4] 0.004 | [5] 0.01 | [6] 0.002 | [7] 0.006 | [8] 0.027 | [9] -0.012 | [10] 0.042 | [11] -0.081 | [12] -0.17 | [13] 0.047 | [14] 0.11 | [15] -0.007 | [16] 0.012 | [17] -0.004 | [18] 0.026 | [19] -0.023 | [20] -0.009

NAA10 (UniProt P41227)
inactive: [1] 0.004 | [2] 0.008 | [3] 0.042 | [4] 0.06 | [5] -0.094 | [6] 0.056 | [7] 0.064 | [8] 0.052 | [9] 0.014 | [10] 0.029 | [11] -0.043 | [12] -0.031 | [13] 0.037 | [14] 0.027 | [15] 0.022 | [16] 0 | [17] 0.007 | [18] 0.015 | [19] -0.115 | [20] -0.014

NAF1 (UniProt Q96HR8)
inactive: [1] -0.034 | [2] -0.06 | [3] -0.037 | [4] 0.002 | [5] 0.05 | [6] 0.057 | [7] -0.011 | [8] 0.076 | [9] 0.006 | [10] -0.017 | [11] 0.054 | [12] 0.033 | [13] -0.008 | [14] -0.029 | [15] -0.01 | [16] 0.031 | [17] 0.006 | [18] -0.029 | [19] 0.09 | [20] -0.035

NAA20 (UniProt P61599)
inactive: [1] 0.07 | [2] -0.031 | [3] 0.005 | [4] 0.006 | [5] -0.096 | [6] 0.117 | [7] 0.008 | [8] 0.012 | [9] -0.011 | [10] -0.002 | [11] -0.014 | [12] -0.049 | [13] 0.013 | [14] -0.025 | [15] 0 | [16] -0.058 | [17] -0.002 | [18] 0.106 | [19] -0.038 | [20] 0.063

NEDD8 (UniProt Q15843)
inactive: [1] -0.033 | [2] -0.061 | [3] -0.006 | [4] 0.032 | [5] -0.029 | [6] 0 | [7] -0.056 | [8] -0.004 | [9] 0.026 | [10] 0.043 | [11] 0.086 | [12] 0.062 | [13] -0.015 | [14] 0.211 | [15] -0.054 | [16] 0.317 | [17] 0.072 | [18] 0.013 | [19] -0.027 | [20] 0.115

NDUFAF1 (UniProt Q9Y375)
inactive: [1] -0.009 | [2] 0.023 | [3] 0.009 | [4] 0.026 | [5] -0.055 | [6] -0.022 | [7] -0.006 | [8] -0.002 | [9] 0.003 | [10] -0.004 | [11] 0.02 | [12] 0.02 | [13] -0.016 | [14] 0.015 | [15] -0.021 | [16] 0.013 | [17] -0.017 | [18] -0.01 | [19] -0.008 | [20] -0.005

Two records picked at random from the list so far, as already listed:
NAF1 (UniProt Q96HR8)
inactive: [1] -0.034 | [2] -0.06 | [3] -0.037 | [4] 0.002 | [5] 0.05 | [6] 0.057 | [7] -0.011 | [8] 0.076 | [9] 0.006 | [10] -0.017 | [11] 0.054 | [12] 0.033 | [13] -0.008 | [14] -0.029 | [15] -0.01 | [16] 0.031 | [17] 0.006 | [18] -0.029 | [19] 0.09 | [20] -0.035

NAA10 (UniProt P41227)
inactive: [1] 0.004 | [2] 0.008 | [3] 0.042 | [4] 0.06 | [5] -0.094 | [6] 0.056 | [7] 0.064 | [8] 0.052 | [9] 0.014 | [10] 0.029 | [11] -0.043 | [12] -0.031 | [13] 0.037 | [14] 0.027 | [15] 0.022 | [16] 0 | [17] 0.007 | [18] 0.015 | [19] -0.115 | [20] -0.014
